No constants are given. Whether binding was seen depends on the method and setting. Binding seen in cells or lysates may run through a third protein. Some entries that bind do so weakly or less than the wild type.
Target: CA125 (human (endogenous in OVCAR-3)) (UniProt Q8WXI7)
Experiment: co-IP; supernatant of whole cell lysates of galectin-1-pIRES2-ZsGreen1 transfected OVCAR-3 cells; immunoprecipitated with the primary antibodies or non-specific IgG as negative control; protein G magnetic beads, 4 °C overnight; western blot with anti-galectin-1 and anti-CA125 mouse monoclonal antibodies

Chains of the proteins cited; added tags and fusions are not shown.
UniProt P09382: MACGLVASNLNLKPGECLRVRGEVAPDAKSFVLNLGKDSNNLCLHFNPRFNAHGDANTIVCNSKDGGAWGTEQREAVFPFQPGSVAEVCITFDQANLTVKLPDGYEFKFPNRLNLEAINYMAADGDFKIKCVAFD

binding: binds
Substance: galectin-1 (from UniProt P09382 1-135)

From publication PMC4654803
